The results in this text go back to publication PMC10329682.

Sequences of proteins named here, by UniProt entry; tags and fusion partners are left off. A change or cut given only in a name is not applied to a line headed by its entry.
UniProt Q16763: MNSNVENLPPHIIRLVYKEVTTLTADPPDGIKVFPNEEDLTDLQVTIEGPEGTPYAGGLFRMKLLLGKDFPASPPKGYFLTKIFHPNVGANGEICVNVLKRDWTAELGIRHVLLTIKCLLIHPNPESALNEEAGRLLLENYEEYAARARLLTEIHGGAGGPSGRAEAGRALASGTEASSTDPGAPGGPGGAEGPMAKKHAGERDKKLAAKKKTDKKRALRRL
UniProt P19474: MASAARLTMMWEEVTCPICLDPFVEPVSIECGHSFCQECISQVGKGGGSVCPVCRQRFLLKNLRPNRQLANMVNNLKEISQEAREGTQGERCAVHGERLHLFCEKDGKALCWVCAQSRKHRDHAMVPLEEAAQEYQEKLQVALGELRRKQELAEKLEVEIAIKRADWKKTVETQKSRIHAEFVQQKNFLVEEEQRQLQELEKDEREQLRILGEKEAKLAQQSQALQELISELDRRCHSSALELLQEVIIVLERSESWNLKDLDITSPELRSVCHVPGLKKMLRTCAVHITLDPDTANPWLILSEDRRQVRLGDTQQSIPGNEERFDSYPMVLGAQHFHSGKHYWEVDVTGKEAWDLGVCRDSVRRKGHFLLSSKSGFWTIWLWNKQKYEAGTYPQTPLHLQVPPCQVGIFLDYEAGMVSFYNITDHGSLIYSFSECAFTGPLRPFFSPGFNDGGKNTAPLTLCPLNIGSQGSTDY

Experiment [1] addresses Ubiquitin-conjugating enzyme E2S (human (endogenous in T24 and UM-UC-3)) (UniProt Q16763). The experiment in a line: co-IP; endogenous proteins in lysates of wild-type T24 and UM-UC-3 cells; 2 ug of the corresponding antibody overnight at 4 C, Protein A/G magnetic beads 2 h at room temperature, western blot. In general terms: In western blotting, separated proteins are transferred to a membrane and probed.

In experiment [2] the target is tripartite motif containing 21 (human (endogenous in T24 and UM-UC-3)) (UniProt P19474). The description is as above.

No constants are given. Whether binding was seen depends on the method and setting. In cells and extracts the contact can be indirect. Some entries that bind do so weakly or less than the wild type.

B1: lipoma preferred partner (protein, UniProt Q93052 1-612)
chain: MSHPSWLPPKSTGEPLGHVPARMETTHSFGNPSISVSTQQPPKKFAPVVAPKPKYNPYKQPGGEGDFLPPPPPPLDDSSALPSISGNFPPPPPLDEEAFKVQGNPGGKTLEERRSSLDAEIDSLTSILADLECSSPYKPRPPQSSTGSTASPPVSTPVTGHKRMVIPNQPPLTATKKSTLKPQPAPQAGPIPVAPIGTLKPQPQPVPASYTTASTSSRPTFNVQVKSAQPSPHYMAAPSSGQIYGSGPQGYNTQPVPVSGQCPPPSTRGGMDYAYIPPPGLQPEPGYGYAPNQGRYYEGYYAAGPGYGGRNDSDPTYGQQGHPNTWKREPGYTPPGAGNQNPPGMYPVTGPKKTYITDPVSAPCAPPLQPKGGHSGQLGPSSVAPSFRPEDELEHLTKKMLYDMENPPADEYFGRCARCGENVVGEGTGCTAMDQVFHVDCFTCIICNNKLRGQPFYAVEKKAYCEPCYINTLEQCNVCSKPIMERILRATGKAYHPHCFTCVMCHRSLDGIPFTVDAGGLIHCIEDFHKKFAPRCSVCKEPIMPAPGQEETVRIVALDRDFHVHCYRCEDCGGLLSEGDNQGCYPLDGHILCKTCNSARIRVLTAKASTDL
Take B1: the binding entry in experiment [1] and in experiment [2] was “binds” throughout.
